For 29 targets, log2 fold change results are on record in the supplement of paper PMC12819154, “High-throughput peptide-centric local stability assay extends protein–ligand identification to membrane proteins, tissues and bacteria” (Nature Structural & Molecular Biology, 2025).

Sequences of proteins named here, by UniProt entry; tags and fusion partners are left off. A change or cut given only in a name is not applied to a line headed by its entry.
UniProt Q9BZL1: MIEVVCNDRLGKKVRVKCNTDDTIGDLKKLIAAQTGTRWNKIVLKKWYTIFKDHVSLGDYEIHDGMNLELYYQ
UniProt Q9C030: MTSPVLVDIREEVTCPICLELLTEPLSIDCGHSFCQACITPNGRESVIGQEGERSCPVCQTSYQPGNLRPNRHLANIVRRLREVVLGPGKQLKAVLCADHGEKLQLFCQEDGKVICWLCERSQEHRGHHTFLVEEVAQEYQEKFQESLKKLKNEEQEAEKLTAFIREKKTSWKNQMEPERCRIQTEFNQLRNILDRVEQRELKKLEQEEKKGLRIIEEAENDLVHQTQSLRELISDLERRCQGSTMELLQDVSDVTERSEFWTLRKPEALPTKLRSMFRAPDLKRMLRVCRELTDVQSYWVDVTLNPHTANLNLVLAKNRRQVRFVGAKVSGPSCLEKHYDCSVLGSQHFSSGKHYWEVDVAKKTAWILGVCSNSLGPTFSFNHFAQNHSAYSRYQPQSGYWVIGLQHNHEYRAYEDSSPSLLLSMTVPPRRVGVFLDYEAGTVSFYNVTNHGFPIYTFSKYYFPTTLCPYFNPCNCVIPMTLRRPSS
UniProt Q9BWV3: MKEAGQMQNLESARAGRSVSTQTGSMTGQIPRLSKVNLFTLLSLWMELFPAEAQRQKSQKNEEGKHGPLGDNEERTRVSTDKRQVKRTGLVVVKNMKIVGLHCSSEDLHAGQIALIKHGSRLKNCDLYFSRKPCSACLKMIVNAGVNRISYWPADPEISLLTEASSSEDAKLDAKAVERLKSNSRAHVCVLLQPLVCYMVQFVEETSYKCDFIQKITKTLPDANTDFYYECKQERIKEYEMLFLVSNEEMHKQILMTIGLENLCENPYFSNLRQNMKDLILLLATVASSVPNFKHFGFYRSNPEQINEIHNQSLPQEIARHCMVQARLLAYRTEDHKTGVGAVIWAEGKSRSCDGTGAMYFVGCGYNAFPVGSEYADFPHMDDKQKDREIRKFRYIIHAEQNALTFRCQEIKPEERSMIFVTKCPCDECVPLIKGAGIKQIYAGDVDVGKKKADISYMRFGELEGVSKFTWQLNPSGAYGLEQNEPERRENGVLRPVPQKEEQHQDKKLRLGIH
UniProt Q9C0C7: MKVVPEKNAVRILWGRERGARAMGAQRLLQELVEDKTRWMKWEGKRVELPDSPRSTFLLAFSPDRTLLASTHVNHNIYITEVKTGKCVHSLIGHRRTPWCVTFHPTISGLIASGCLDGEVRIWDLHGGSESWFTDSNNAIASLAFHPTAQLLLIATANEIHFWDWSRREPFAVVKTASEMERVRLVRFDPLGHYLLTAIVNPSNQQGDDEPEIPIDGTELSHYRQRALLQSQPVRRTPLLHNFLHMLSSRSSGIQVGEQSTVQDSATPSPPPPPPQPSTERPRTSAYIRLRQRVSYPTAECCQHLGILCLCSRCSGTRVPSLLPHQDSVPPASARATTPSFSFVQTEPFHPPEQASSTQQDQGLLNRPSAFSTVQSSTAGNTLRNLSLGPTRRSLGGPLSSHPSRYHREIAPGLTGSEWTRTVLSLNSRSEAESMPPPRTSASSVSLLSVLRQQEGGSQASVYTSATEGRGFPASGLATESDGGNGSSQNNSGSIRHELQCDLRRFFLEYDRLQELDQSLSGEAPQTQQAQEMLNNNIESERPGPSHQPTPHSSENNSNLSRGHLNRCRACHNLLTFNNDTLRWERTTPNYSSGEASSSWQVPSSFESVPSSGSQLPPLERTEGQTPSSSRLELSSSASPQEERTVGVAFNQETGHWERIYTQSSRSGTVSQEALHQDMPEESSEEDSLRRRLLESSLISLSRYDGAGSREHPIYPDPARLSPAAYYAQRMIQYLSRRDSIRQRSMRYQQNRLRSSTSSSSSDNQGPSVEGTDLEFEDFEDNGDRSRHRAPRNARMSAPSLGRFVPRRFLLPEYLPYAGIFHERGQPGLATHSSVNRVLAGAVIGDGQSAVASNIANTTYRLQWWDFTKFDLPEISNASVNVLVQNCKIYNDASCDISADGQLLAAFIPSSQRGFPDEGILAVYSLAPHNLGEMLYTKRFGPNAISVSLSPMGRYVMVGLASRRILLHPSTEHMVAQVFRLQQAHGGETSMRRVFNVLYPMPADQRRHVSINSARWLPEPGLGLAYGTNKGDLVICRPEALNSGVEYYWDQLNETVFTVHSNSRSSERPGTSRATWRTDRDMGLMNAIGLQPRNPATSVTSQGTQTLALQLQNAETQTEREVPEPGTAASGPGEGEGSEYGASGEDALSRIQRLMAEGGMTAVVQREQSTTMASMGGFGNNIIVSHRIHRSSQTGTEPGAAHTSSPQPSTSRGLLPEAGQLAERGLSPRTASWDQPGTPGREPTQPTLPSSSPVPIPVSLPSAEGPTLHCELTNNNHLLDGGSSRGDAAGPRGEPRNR
UniProt Q9H0B6: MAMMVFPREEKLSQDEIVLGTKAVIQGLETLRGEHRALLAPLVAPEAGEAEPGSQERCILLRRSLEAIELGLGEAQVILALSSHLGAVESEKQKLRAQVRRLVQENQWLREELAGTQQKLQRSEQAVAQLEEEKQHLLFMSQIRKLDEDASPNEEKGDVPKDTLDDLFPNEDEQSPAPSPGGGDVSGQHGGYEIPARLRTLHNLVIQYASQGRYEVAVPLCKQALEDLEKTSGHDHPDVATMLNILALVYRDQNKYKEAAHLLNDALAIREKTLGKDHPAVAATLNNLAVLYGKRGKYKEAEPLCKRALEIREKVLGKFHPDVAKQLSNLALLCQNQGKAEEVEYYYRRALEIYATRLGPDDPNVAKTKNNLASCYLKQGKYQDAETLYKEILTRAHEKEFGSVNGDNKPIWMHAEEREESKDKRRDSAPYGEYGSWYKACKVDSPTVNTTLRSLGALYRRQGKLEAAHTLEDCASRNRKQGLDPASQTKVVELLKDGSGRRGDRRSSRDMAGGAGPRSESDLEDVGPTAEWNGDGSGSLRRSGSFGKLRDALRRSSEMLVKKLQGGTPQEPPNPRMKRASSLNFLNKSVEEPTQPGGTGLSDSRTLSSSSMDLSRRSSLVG
UniProt Q9C005, whole entry: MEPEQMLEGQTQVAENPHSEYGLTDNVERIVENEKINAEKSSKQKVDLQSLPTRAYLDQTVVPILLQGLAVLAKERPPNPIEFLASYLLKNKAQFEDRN
UniProt Q9C000: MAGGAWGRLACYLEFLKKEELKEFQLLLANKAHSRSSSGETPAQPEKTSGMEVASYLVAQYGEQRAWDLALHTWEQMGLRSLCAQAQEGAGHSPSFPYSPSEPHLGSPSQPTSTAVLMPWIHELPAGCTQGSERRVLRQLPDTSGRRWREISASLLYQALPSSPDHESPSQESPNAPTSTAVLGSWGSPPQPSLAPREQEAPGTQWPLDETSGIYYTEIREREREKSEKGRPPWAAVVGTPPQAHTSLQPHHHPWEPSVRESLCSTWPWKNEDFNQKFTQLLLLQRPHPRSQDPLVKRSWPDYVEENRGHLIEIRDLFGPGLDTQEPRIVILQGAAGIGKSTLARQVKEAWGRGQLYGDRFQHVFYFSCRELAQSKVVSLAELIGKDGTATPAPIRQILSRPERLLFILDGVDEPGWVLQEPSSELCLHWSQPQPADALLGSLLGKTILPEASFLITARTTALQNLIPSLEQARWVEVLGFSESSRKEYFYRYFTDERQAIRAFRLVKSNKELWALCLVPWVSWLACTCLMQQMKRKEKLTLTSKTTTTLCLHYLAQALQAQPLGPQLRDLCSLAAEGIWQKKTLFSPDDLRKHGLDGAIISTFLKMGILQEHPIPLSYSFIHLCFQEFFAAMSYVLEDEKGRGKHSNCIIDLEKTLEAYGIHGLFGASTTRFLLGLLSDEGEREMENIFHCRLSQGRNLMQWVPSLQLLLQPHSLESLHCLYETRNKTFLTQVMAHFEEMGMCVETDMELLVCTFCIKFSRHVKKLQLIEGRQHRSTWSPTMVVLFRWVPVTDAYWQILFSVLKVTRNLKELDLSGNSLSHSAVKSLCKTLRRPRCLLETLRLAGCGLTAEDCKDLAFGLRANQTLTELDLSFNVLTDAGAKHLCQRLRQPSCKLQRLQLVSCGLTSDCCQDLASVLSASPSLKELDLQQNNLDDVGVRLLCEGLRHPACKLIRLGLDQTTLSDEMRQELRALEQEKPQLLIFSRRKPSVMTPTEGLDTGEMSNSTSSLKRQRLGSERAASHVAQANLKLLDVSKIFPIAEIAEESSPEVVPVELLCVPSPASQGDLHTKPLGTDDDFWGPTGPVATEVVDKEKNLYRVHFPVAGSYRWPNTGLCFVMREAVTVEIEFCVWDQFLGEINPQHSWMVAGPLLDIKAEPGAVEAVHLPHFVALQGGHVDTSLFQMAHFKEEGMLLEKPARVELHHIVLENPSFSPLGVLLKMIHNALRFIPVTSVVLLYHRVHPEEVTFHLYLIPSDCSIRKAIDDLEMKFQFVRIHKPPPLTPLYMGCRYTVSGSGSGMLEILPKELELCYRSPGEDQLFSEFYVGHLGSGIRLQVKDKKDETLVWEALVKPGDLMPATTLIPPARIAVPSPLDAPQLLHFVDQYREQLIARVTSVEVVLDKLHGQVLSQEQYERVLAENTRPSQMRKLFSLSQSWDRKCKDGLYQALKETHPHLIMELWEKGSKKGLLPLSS
UniProt Q9BZF2: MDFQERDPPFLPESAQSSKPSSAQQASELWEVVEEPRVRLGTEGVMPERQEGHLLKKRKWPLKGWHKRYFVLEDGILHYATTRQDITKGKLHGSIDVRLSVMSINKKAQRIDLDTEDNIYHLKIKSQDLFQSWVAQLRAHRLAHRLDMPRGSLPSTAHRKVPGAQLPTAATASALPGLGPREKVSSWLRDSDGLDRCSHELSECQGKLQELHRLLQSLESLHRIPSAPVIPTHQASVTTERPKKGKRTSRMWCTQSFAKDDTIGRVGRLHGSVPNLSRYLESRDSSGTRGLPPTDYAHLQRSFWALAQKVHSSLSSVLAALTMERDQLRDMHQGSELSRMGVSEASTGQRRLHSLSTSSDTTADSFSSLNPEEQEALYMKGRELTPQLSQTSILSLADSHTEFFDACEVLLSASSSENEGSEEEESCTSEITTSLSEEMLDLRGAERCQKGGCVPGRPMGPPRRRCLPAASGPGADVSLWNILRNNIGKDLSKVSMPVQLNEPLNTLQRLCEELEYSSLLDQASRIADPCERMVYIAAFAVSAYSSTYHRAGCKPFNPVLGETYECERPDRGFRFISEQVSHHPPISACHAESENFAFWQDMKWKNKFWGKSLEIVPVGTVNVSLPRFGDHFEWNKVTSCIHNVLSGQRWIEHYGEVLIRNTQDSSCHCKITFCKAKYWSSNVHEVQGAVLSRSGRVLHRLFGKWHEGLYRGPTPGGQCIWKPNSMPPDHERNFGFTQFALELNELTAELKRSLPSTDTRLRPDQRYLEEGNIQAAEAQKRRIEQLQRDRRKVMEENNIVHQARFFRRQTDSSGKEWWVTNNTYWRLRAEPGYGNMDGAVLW
UniProt Q9C0E8: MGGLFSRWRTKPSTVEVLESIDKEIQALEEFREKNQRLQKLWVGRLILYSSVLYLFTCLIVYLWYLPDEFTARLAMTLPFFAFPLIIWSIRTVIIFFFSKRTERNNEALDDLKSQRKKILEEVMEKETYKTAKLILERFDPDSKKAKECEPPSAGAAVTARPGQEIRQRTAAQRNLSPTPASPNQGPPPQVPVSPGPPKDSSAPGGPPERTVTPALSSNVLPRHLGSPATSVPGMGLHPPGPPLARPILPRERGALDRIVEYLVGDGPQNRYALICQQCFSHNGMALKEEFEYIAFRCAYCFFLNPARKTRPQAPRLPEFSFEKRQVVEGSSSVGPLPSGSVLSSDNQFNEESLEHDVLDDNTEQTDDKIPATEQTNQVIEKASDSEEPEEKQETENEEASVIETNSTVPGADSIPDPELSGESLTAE
UniProt Q9H0W5: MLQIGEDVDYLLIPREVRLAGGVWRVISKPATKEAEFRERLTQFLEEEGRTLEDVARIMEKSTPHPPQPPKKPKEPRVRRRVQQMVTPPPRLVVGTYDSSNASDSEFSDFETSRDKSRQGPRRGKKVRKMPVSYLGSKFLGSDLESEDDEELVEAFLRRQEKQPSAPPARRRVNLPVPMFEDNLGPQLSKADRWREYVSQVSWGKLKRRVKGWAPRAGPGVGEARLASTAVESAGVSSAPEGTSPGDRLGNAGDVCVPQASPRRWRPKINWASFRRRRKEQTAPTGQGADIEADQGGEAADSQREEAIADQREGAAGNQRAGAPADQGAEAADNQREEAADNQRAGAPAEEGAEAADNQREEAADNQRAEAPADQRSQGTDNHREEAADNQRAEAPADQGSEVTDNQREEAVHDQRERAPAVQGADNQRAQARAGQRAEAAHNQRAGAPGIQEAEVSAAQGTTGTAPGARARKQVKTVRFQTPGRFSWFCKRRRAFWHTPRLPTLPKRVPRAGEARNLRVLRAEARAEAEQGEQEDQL
UniProt Q9BUX1: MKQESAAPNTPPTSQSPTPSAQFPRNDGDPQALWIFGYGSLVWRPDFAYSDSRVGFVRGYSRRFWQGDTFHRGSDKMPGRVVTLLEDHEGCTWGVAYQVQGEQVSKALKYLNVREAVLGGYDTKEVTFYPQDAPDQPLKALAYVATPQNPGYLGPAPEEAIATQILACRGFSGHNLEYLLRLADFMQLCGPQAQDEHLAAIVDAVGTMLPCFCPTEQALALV

Compound in the assay: Cc1nc(Nc2ncc(C(=O)Nc3c(C)cccc3Cl)s2)cc(N2CCN(CCO)CC2)n1 [dasatinib]
Kind of assay: log2 fold change of tryptic peptide abundance, ligand vs vehicle (limited proteolysis) (log2 ratio); higher = more trypsin-susceptible (destabilized). The note with it: ligand concentration: 5 uM; sample: K562 cleared lysate.

This is one part of the list. Most entries show no effect beyond the scatter of the controls.

Consider “UniProt Q9H0M5 (peptide sequence: THMGEKPYECKDCGK, peptide start residue: 725)”, for which the log2 fold change was 0.29.

Regarding “UniProt Q9H0R1 (peptide sequence: ALLFELR, peptide start residue: 54)”, the log2 fold change is -0.126.

Take “UniProt Q9BZL1 (peptide sequence: LIAAQTGTR, peptide start residue: 30)”: the log2 fold change is -0.256.

For the target “DPH1 (peptide sequence: GKVQEGSARPPSAVACEDCSCR, peptide start residue: 413) (UniProt Q9BZG8)”, the log2 fold change turned out to be 0.147.

For the target “UniProt Q9BXJ9 (peptide sequence: LFNTAVCESKDLSDTVR, peptide start residue: 715)”, the log2 fold change worked out at 0.226.

Turning to “UniProt Q9C030 (peptide sequence: IIEEAENDLVHQTQSLR, peptide start residue: 215)”, the log2 fold change came out at 0.19.

Consider “CDADC1 (peptide sequence: HGPLGDNEER, peptide start residue: 66) (UniProt Q9BWV3)”, for which the log2 fold change amounted to 0.00932.

Consider “AMBRA1 (peptide sequence: GQPGLATHSSVNR, peptide start residue: 825) (UniProt Q9C0C7)”, for which the log2 fold change was -0.211.

As to “KLC2 (peptide sequence: AVIQGLETLRGEHR, peptide start residue: 23) (UniProt Q9H0B6)”, the log2 fold change was -0.314.

Take “MND1 (peptide sequence: GLSAEEKR, peptide start residue: 6) (UniProt Q9BWT6)”: the log2 fold change was -0.341.

For “MAF1 (peptide sequence: SQGGEEEGPLSDKCSRK, peptide start residue: 75) (UniProt Q9H063)”, the log2 fold change was determined as 0.166.

For “SRXN1 (peptide sequence: GAQGGDYFYSFGGCHR, peptide start residue: 86) (UniProt Q9BYN0)”, the log2 fold change turned out to be 0.24.

With “WDR33 (peptide sequence: GPPNHHMGPMSER, peptide start residue: 961) (UniProt Q9C0J8)”, the log2 fold change was 0.103.

Turning to “DPY30 (peptide sequence: QKVDLQSLPTR, peptide start residue: 44) (UniProt Q9C005)”, the log2 fold change is -0.28.

For “PHF20 (peptide sequence: SLEPEESPGKR, peptide start residue: 482) (UniProt Q9BVI0)”, the log2 fold change is -0.508.

In the case of “FUNDC2 (peptide sequence: SKAEEVVSFVKK, peptide start residue: 160) (UniProt Q9BWH2)”, the log2 fold change is -0.121.

Take “UniProt Q9C0B2 (peptide sequence: TQAFHLR, peptide start residue: 72)”: the log2 fold change is -0.212.

As to “NLRP1 (peptide sequence: AASHVAQANLK, peptide start residue: 1020) (UniProt Q9C000)”, the log2 fold change is 0.0958.

As to “KIF13A (peptide sequence: VTQWAEER, peptide start residue: 660) (UniProt Q9H1H9)”, the log2 fold change came out at 0.633.

As for “CARD6 (peptide sequence: ASWVMGRPFGSEQRPK, peptide start residue: 749) (UniProt Q9BX69)”, the log2 fold change is -0.344.

Take “UniProt Q9BZF2 (peptide sequence: YFVLEDGILHYATTR, peptide start residue: 69)”: the log2 fold change was determined as 0.461.

As for “UniProt Q9C0E8 (peptide sequence: DSSAPGGPPER, peptide start residue: 200)”, the log2 fold change is -0.0632.

For “SAP130 (peptide sequence: KAMLQEIANQK, peptide start residue: 927) (UniProt Q9H0E3)”, the log2 fold change was -0.532.

Regarding “ZNF407 (peptide sequence: AGLEEQGRPGAK, peptide start residue: 2006) (UniProt Q9C0G0)”, the log2 fold change is 0.604.

Take “CCDC8 (peptide sequence: PKINWASFRR, peptide start residue: 267) (UniProt Q9H0W5)”: the log2 fold change stood at 0.696.

In the case of “B7Z5R0 (peptide sequence: EGTGALEKPDPVAAGSPGLK, peptide start residue: 116) (UniProt Q9BV97)”, the log2 fold change is 0.0844.

As for “CHAC1 (peptide sequence: GFSGHNLEYLLR, peptide start residue: 170) (UniProt Q9BUX1)”, the log2 fold change is -0.189.

Turning to “KDM5D (peptide sequence: YCVFSHEELICK, peptide start residue: 639) (UniProt Q9BY66)”, the log2 fold change amounted to 0.307.

Regarding “TRIM4 (peptide sequence: HPSAPAALRPNWALAR, peptide start residue: 54) (UniProt Q9C037)”, the log2 fold change is -0.0112.
